Values from PubChem BioAssay AID652243 (Drosophila RNAi Screening Center, 2013).
In all, the deposit lists about 24,000 reagents; below is an unselected part of those that have a named target and a result. Of all reagents, 246 (1%) got an active call. 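Plates not normalised; calls are printed but the firefly/Renilla ratio behind them is not deposited; fold cut for lowering reported inconsistently.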 Raw values are not corrected between plates. The record does not give: the amount of reagent.

- Assay: 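Fly genes required for human androgen receptor driven transcription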 (primary screen)
- Cells: Drosophila S2R+ cells
- Reagent: long dsRNA against Drosophila genes
- Timing: 72 h (48 h, then 24 h hormone)
- Conditions: synthetic androgen R1881 at 10 nM for 24 h
- Measured: 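Per-well raw luminescence of the androgen-driven firefly reporter and of the Renilla control, two replicates each, without normalisation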
- Direction: firefly reporter light: higher = more light from androgen-responsive reporter; Renilla control light: higher = more constitutive control signal (cell number, transfection)
- Rule for the call: 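Hit when the log firefly-to-Renilla ratio dropped or increased by a fixed fold versus the mean of GFP or LacZ controls across duplicate plates; lowering cut given as 1.5 and as 3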
- Calls: active = hit: reporter lowered or raised; inactive = no hit

| gene | amplicon | firefly reporter light, replicate 1 | firefly reporter light, replicate 2 | Renilla control light, replicate 1 | Renilla control light, replicate 2 | call |
| --- | --- | --- | --- | --- | --- | --- |
| l(1)G0320 | DRSC18255 | 85353 | 61673 | 6.22e5 | 5.62e5 | inactive |
| snoRNA:Psi28S-2566 | DRSC37900 | 63910 | 1.31e5 | 3.08e5 | 3.03e5 | inactive |
| CG33922 | DRSC38939 | 7.66e5 | 6.93e5 | 2.10e6 | 2.10e6 | inactive |
| CG18343 | DRSC06726 | 3.23e5 | 3.21e5 | 1.53e6 | 1.78e6 | inactive |
| Spn43Aa | DRSC06117 | 6.71e5 | 4.89e5 | 1.01e6 | 9.45e5 | inactive |
| stv | DRSC10111 | 1.08e5 | 86166 | 2.30e6 | 1.62e6 | inactive |
| stv | DRSC24419 | 5.27e5 | 7.29e5 | 8.64e5 | 8.43e5 | inactive |
| Eig71Ej | DRSC11157 | 3.30e5 | 3.37e5 | 2.89e6 | 2.68e6 | inactive |
| Eig71Ej | DRSC28224 | 4.61e5 | 5.96e5 | 1.64e6 | 1.87e6 | inactive |
| CG17168 | DRSC20904 | 2.18e5 | 1.33e5 | 5.11e5 | 3.21e5 | inactive |
| CG17168 | DRSC29872 | 5.75e5 | 4.89e5 | 1.26e6 | 7.52e5 | inactive |
| Marf | DRSC18329 | 41969 | 63873 | 4.49e5 | 4.32e5 | inactive |
| Marf | DRSC28101 | 4.43e5 | 3.75e5 | 1.97e6 | 1.38e6 | inactive |
| InR | DRSC16717 | 2.88e5 | 2.12e5 | 3.49e6 | 3.48e6 | inactive |
| InR | DRSC36685 | 8.45e5 | 7.76e5 | 1.84e6 | 1.83e6 | inactive |
| InR | DRSC36686 | – | – | – | – | inactive |
| tzn | DRSC11755 | 52704 | 40470 | 3.94e5 | 3.93e5 | inactive |
| exu | DRSC07615 | 8.89e5 | 7.81e5 | 1.53e6 | 1.36e6 | inactive |
| TwdlR | DRSC14736 | 1.95e5 | 1.42e5 | 1.84e6 | 1.96e6 | inactive |
| CG30049 | DRSC21345 | 7.94e5 | 6.88e5 | 2.76e6 | 2.20e6 | inactive |
| CG30049 | DRSC26709 | 2.17e5 | 2.02e5 | 7.91e5 | 5.87e5 | inactive |
| brn | DRSC18746 | 1.05e5 | 75493 | 6.86e5 | 6.72e5 | inactive |
| CG33169 | DRSC11853 | 1.62e5 | 1.52e5 | 1.05e6 | 1.06e6 | inactive |
| CG33169 | DRSC27830 | 3.00e5 | 2.85e5 | 5.47e5 | 8.19e5 | inactive |
| CG32219 | DRSC09641 | 2.77e5 | 2.87e5 | 7.66e5 | 7.72e5 | inactive |

The list goes on (7 carried over from the part before).
| gene | amplicon | firefly reporter light, replicate 1 | firefly reporter light, replicate 2 | Renilla control light, replicate 1 | Renilla control light, replicate 2 | call |
| --- | --- | --- | --- | --- | --- | --- |
| TwdlR | DRSC14736 | 1.95e5 | 1.42e5 | 1.84e6 | 1.96e6 | inactive |
| CG30049 | DRSC21345 | 7.94e5 | 6.88e5 | 2.76e6 | 2.20e6 | inactive |
| CG30049 | DRSC26709 | 2.17e5 | 2.02e5 | 7.91e5 | 5.87e5 | inactive |
| brn | DRSC18746 | 1.05e5 | 75493 | 6.86e5 | 6.72e5 | inactive |
| CG33169 | DRSC11853 | 1.62e5 | 1.52e5 | 1.05e6 | 1.06e6 | inactive |
| CG33169 | DRSC27830 | 3.00e5 | 2.85e5 | 5.47e5 | 8.19e5 | inactive |
| CG32219 | DRSC09641 | 2.77e5 | 2.87e5 | 7.66e5 | 7.72e5 | inactive |
| rush | DRSC18568 | 1.73e5 | 1.37e5 | 1.23e6 | 1.05e6 | inactive |
| Tapdelta | DRSC05946 | 8.95e5 | 1.26e6 | 1.28e6 | 1.85e6 | inactive |
| CG31126 | DRSC14623 | 2.09e5 | 2.66e5 | 2.05e6 | 2.65e6 | inactive |
| CG5770 | DRSC06954 | 9.66e5 | 2.05e5 | 1.42e6 | 4.66e5 | inactive |
| CG5770 | DRSC24281 | 6.10e5 | 7.74e5 | 9.03e5 | 1.12e6 | inactive |
| CG6472 | DRSC06989 | 54868 | 61375 | 9.40e5 | 9.40e5 | inactive |
| CG14260 | DRSC14755 | 1.72e5 | 1.47e5 | 2.27e6 | 2.59e6 | inactive |
| Cyp12c1 | DRSC11125 | 1.00e5 | 72728 | 5.04e5 | 4.77e5 | inactive |
| Cyp12c1 | DRSC24262 | 4.92e5 | 3.49e5 | 5.72e5 | 5.23e5 | inactive |
| comt | DRSC20319 | 5.60e5 | 3.94e5 | 3.78e6 | 2.61e6 | inactive |
| comt | DRSC25218 | 3.87e5 | 2.95e5 | 4.95e5 | 3.70e5 | inactive |
| CG40470 | DRSC37732 | 6.31e5 | 7.09e5 | 1.65e6 | 1.98e6 | inactive |
| CG18635 | DRSC06780 | 3.56e5 | 5.69e5 | 2.45e6 | 3.51e6 | inactive |
| CG18635 | DRSC25971 | 4.73e5 | 3.21e5 | 1.10e6 | 8.05e5 | inactive |
| Cht5 | DRSC16470 | 5.62e5 | 5.13e5 | 1.61e6 | 1.59e6 | inactive |
| Cht5 | DRSC26080 | 4.07e5 | 4.22e5 | 7.83e5 | 8.63e5 | inactive |
| CG1927 | DRSC08146 | 1.16e6 | 9.03e5 | 2.41e6 | 1.16e6 | inactive |
| Reepl1 | DRSC19418 | 3.29e5 | 2.84e5 | 3.94e6 | 2.98e6 | inactive |
| Reepl1 | DRSC26698 | 2.66e5 | 2.77e5 | 5.69e5 | 5.81e5 | inactive |
| SPR | DRSC17886 | 2.73e5 | 3.91e5 | 2.06e6 | 2.42e6 | inactive |
| SPR | DRSC18114 | 2.47e5 | 3.14e5 | 2.69e6 | 3.00e6 | inactive |
| SPR | DRSC21557 | 8.85e5 | 1.05e6 | 1.96e6 | 1.92e6 | inactive |
| M7BP | DRSC05053 | 93707 | 1.05e5 | 2.20e5 | 2.72e5 | inactive |
| M7BP | DRSC05054 | 73782 | 91863 | 2.82e5 | 1.89e5 | inactive |
| M7BP | DRSC05932 | 7.03e5 | 3.80e5 | 9.52e5 | 1.08e6 | inactive |
| M7BP | DRSC06701 | 2.49e5 | 2.39e5 | 1.79e6 | 1.76e6 | inactive |
| M7BP | DRSC06816 | 3.03e5 | 2.85e5 | 2.48e6 | 2.00e6 | inactive |
| M7BP | DRSC26905 | 3.11e5 | 2.98e5 | 4.52e5 | 3.56e5 | inactive |
| Ntmt | DRSC06624 | 2.80e5 | 2.90e5 | 2.65e6 | 1.92e6 | inactive |
| Ntmt | DRSC28647 | 7.58e5 | 4.96e5 | 1.27e6 | 1.35e6 | inactive |
| CG10359 | DRSC08156 | 1.12e6 | 7.05e5 | 1.38e6 | 1.25e6 | inactive |
| CG12121 | DRSC17816 | 2.28e5 | 3.36e5 | 2.53e6 | 2.68e6 | inactive |
| Cbp80 | DRSC18450 | 71472 | 51009 | 6.31e5 | 3.85e5 | inactive |
| Eglp2 | DRSC04294 | 1.14e6 | 5.31e5 | 1.48e6 | 1.00e6 | inactive |
| CoRest | DRSC19881 | 1.65e5 | 1.51e5 | 6.81e5 | 9.20e5 | inactive |
| CoRest | DRSC21626 | 1.31e6 | 9.60e5 | 2.26e6 | 1.56e6 | inactive |
| CoRest | DRSC22305 | 9.03e5 | 7.99e5 | 2.24e6 | 1.94e6 | inactive |
| CoRest | DRSC25141 | 1.22e6 | 1.20e6 | 1.02e6 | 6.60e5 | inactive |
| Cda4 | DRSC20623 | 2.14e5 | 1.95e5 | 7.45e5 | 5.14e5 | inactive |
| Cda4 | DRSC20641 | 80903 | 79337 | 1.92e5 | 1.93e5 | inactive |
| Cda4 | DRSC20642 | 2.12e5 | 1.63e5 | 7.79e5 | 5.91e5 | inactive |
| CG3984 | DRSC15530 | 2.26e5 | 1.50e5 | 2.85e6 | 2.97e6 | inactive |
| Idgf1 | DRSC03349 | 1.22e6 | 1.09e6 | 1.83e6 | 2.05e6 | inactive |
| Idgf1 | DRSC26045 | 2.77e5 | 3.14e5 | 7.77e5 | 7.32e5 | inactive |
| Cpr97Eb | DRSC15123 | 2.53e5 | 2.44e5 | 3.37e6 | 3.41e6 | inactive |
| CG30428 | DRSC04041 | 2.16e5 | 2.51e5 | 5.62e5 | 6.29e5 | inactive |
| CG30428 | DRSC28228 | 3.39e5 | 8.27e5 | 9.91e5 | 2.25e6 | inactive |
| CG16926 | DRSC06637 | 1.21e6 | 1.10e6 | 9.91e5 | 8.71e5 | inactive |
| Dhc62B | DRSC08655 | 89744 | 1.04e5 | 8.99e5 | 1.13e6 | inactive |
